Data on one substance can be found in paper doi:10.1101/2024.06.03.596644.

Numbering of substitutions follows the chain as printed. These are yes or no findings as the source states them, for the method shown. A result given as binding can be weak or reduced; the word gives no strength. Where a sequence is shown, tags or fusion partners need not be part of it.

In one assay the target is T1, His-WT-FBXO31 (UniProt Q5XUX0).
T1 sequence: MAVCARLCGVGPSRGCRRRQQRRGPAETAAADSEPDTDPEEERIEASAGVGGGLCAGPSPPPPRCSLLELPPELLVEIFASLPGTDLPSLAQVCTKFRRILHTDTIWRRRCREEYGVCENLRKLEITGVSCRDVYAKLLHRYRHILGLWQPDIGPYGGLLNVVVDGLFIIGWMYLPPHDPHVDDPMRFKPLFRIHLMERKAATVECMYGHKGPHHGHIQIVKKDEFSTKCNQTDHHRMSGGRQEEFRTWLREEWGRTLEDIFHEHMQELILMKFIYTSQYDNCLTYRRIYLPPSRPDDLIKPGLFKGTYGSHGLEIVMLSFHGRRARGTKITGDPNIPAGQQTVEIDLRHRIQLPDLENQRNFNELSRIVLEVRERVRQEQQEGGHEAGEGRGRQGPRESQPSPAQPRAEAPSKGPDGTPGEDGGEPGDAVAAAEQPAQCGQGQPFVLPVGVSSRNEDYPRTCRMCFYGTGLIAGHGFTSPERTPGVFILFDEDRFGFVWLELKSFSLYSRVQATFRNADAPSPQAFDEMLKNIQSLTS
Put plainly: pull-down.

In the next assay the target is T2, His-FBXO31(S278D) (UniProt Q5XUX0).
T2 sequence: T1 sequence with S278D
Put plainly: pull-down.

Regarding GST-H2AX(S139D), the binding entry with His-WT-FBXO31 and with His-FBXO31(S278D) was “binds” throughout.
